Measured values: PMC8302610
These are yes or no findings as the source states them, for the method shown. In cells and extracts the contact can be indirect. Some entries that bind do so weakly or less than the wild type.

By UniProt entry, the sequences of proteins in these tests, tags left out.
UniProt Q9UBN7: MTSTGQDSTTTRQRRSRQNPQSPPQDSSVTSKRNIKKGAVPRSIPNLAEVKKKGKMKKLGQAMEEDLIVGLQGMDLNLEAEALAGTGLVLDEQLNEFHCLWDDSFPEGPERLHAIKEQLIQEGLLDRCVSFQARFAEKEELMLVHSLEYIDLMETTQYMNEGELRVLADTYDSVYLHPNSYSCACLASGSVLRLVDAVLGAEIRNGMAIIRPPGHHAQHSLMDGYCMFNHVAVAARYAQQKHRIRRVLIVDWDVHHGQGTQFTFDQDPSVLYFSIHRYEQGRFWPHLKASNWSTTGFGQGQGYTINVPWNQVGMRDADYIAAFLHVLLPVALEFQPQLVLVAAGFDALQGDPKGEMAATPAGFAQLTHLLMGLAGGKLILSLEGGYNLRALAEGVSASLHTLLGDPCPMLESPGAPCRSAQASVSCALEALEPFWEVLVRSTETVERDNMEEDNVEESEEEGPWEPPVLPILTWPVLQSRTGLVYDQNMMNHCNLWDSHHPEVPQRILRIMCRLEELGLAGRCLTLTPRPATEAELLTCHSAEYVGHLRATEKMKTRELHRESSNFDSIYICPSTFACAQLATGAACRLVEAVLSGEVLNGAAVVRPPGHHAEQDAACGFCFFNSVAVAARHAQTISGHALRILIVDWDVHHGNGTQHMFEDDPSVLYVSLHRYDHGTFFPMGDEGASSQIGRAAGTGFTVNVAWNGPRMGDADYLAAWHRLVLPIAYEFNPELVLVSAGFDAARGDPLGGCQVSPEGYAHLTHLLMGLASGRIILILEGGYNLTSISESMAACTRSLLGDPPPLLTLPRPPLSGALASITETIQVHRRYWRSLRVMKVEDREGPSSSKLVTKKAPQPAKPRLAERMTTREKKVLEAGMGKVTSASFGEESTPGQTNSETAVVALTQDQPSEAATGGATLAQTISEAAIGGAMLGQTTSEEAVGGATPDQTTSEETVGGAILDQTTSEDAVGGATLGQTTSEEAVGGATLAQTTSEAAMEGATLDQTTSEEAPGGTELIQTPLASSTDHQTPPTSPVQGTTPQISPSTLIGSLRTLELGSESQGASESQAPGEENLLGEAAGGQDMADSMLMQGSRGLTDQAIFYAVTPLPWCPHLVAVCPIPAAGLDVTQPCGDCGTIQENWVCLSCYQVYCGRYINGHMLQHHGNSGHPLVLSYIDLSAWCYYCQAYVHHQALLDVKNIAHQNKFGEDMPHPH
UniProt Q96RD7: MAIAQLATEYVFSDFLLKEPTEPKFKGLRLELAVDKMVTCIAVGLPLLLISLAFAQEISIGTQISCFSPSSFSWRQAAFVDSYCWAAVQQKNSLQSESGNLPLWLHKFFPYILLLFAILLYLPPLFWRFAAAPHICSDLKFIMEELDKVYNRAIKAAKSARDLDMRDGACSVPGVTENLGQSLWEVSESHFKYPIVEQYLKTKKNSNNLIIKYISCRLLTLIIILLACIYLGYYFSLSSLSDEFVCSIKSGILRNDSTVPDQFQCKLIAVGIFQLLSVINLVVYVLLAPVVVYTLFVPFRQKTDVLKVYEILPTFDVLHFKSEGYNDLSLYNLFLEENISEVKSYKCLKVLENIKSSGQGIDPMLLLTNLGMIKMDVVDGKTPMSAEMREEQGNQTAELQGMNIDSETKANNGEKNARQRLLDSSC

Biological target: FLAG-tagged HDAC6 (histone deacetylase 6) (UniProt Q9UBN7)
Experiment: co-IP; FLAG-tagged HDAC6 and Strep-tagged PANX1 co-expressed in HEK293T cells (~24 h); lysis in PBS with 1% Triton X-100, protease inhibitors, 10 mM NaF, 10 mM NaVO3; HDAC6-FLAG precipitated with anti-FLAG M2 agarose; PANX1 detected by immunoblot with an anti-Panx1 antibody

binding: binds
Substance: Strep-tagged human Pannexin 1 (hPANX1-Strep) (from UniProt Q96RD7 1-426)
